Earlier results, collected in patent publication US8703951B2, “Synthesis of 4H-benzo[D]pyrrolo[1,2-A]thiazoles and indolizino[6,7-b]indole derivatives and their use as antitumor therapeutic agents” (Academia Sinica, priority 2011, dated 2014).
Some entries share one result that the patent states for a list of compounds. At least one compound was matched to its structure with a doubt left.

System: human prostate aderonamacarcinoma PC3 xenograft
Conditions: background; cited from earlier work

In the case of `CNC(=O)OCc1c(COC(=O)NC)c(-c2ccc(OC)cc2)n2c1Cc1ccccc1-2` [BO-1012], the tumor suppression is listed as “more than 95%”.
